At least one compound was matched to its structure with a doubt left.
Tested on: hair follicles
Assay: Hair follicle growth (elongation) in organ culture of scalp hair follicles, image analysis
Format: cell-based, human
Conditions: 0.003 to 0.3 μg/ml
Experimental: For each experiment and the control 9-12 follicles were used, plated at the density of 3 hair follicles/well in 24 well plates. Hair follicles were taken from the head of the scalp and transferred for cultivation in sterile 24 well plates using a modified Williams' Medium E. Cultivation took place for nine days, following 18 h of pre-incubation performed in order to select hair follicles suitable to be maintained in culture. Only those follicles showing a good vital stage and a growth of not less than 0.2 mm were used.
The growth performances observed in the treated hair follicles were compared to a control group, which was cultured in the same culture medium but free from extract supplement.
[…] In order to obtain these supplemented media, the required quantity of dir-MeOH extract was submitted to solvent evaporation and then redissolved again in DMSO. The final concentration of this DMSO-solved extract has been adjusted in order to supplement the experimental media with the desired extract quantity, obtaining at same time a final concentration in DMSO equal to 0.05%. The same concentration of DMSO has also been used in the medium for the culture of the control group.
The experiments were terminated after 10 days of cultivation (9 days of treatment). The growth of the hair follicles was studied by microphotography and subsequently determined by image analysis. […]

## CC/C=C\C/C=C\C/C=C\C/C=C\C/C=C\C/C=C\CCC(=O)O [DHA, docosahexaenoic acid]
  effect on hair follicle growth (in words): inhibiting dose-response

— patent US12128257B2, “Extracts of Isochrysis sp” (SYMRISE AG, priority 2008, dated 2024)
